No constants are given. Whether binding was seen depends on the method and setting. In cells and extracts the contact can be indirect. Some results given as binding are weak or reduced against the parent protein; the word gives no strength.

Chains of the proteins cited; added tags and fusions are not shown.
UniProt Q9UPY3: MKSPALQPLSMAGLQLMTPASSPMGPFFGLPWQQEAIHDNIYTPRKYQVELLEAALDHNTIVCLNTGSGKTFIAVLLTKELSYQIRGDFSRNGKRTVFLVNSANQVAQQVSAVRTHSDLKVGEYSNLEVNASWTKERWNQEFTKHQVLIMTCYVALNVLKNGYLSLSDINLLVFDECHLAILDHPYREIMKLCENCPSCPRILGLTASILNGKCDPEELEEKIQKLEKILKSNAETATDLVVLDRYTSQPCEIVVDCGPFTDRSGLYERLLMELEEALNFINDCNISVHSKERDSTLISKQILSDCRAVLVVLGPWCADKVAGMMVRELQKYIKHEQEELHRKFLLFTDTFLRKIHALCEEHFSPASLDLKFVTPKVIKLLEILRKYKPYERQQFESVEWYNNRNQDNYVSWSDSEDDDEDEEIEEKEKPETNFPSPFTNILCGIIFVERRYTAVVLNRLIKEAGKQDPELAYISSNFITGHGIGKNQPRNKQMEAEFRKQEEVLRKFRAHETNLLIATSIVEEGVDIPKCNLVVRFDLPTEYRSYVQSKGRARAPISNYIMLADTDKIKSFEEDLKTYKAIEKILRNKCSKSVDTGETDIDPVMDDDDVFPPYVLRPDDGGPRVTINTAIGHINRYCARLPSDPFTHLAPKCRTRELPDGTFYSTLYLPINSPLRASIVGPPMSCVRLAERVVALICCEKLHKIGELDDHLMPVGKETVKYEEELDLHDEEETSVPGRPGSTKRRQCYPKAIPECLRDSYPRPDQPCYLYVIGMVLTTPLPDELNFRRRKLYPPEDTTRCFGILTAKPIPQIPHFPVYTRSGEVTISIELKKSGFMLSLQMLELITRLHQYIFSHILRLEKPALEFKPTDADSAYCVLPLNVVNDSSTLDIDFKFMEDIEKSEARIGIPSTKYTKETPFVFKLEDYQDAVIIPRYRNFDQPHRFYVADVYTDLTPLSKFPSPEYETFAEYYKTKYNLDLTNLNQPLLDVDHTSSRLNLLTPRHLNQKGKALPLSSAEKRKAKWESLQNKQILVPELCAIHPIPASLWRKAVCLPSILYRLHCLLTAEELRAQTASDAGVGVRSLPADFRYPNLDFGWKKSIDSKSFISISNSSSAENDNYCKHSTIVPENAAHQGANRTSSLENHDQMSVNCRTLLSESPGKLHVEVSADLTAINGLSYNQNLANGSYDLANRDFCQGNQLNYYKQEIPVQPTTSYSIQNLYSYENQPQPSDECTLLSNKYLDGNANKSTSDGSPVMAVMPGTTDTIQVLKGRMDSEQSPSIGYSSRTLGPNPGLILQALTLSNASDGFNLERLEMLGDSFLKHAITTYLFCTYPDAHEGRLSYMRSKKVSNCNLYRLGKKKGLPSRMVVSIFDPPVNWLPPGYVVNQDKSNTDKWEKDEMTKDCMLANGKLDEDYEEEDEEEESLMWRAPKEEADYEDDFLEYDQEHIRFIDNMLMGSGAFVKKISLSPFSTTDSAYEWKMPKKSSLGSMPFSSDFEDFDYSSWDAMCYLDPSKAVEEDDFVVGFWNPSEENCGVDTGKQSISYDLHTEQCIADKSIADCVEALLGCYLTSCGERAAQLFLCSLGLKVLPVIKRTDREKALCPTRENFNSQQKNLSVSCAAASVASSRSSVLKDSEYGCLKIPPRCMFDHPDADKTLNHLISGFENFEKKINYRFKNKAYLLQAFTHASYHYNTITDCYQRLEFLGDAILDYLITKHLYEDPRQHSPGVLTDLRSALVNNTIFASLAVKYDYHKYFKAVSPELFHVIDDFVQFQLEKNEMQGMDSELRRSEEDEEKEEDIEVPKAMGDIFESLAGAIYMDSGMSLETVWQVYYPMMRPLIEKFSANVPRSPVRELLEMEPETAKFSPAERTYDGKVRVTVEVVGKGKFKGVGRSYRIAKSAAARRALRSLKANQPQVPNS

The record followed here is article PMC6637647.

The experiment addresses Dicer (human (endogenous in Cal27)) (UniProt Q9UPY3). Put plainly: co-IP; Cal27 cell lysates (sonication; 50 mM Tris-HCl pH 7.5, 130 mM NaCl, 1% Nonidet P-40, 0.5% sodium deoxycholate) incubated with normal rabbit IgG, anti-ADAR1, anti-Dicer, anti-Drosha, anti-Argonaute1, anti-Argonaute2 or anti-TRBP antibodies and Protein A/G PLUS-Agarose beads at 4 °C overnight; western blot.

B1: ADAR1 (adenosine deaminase acting on RNA 1) (protein, UniProt P55265-5 1-931)
chain: MAEIKEKICDYLFNVSDSSALNLAKNIGLTKARDINAVLIDMERQGDVYRQGTTPPIWHLTDKKRERMQIKRNTNSVPETAPAAIPETKRNAEFLTCNIPTSNASNNMVTTEKVENGQEPVIKLENRQEARPEPARLKPPVHYNGPSKAGYVDFENGQWATDDIPDDLNSIRAAPGEFRAIMEMPSFYSHGLPRCSPYKKLTECQLKNPISGLLEYAQFASQTCEFNMIEQSGPPHEPRFKFQVVINGREFPPAEAGSKKVAKQDAAMKAMTILLEEAKAKDSGKSEESSHYSTEKESEKTAESQTPTPSATSFFSGKSPVTTLLECMHKLGNSCEFRLLSKEGPAHEPKFQYCVAVGAQTFPSVSAPSKKVAKQMAAEEAMKALHGEATNSMASDNQPEGMISESLDNLESMMPNKVRKIGELVRYLNTNPVGGLLEYARSHGFAAEFKLVDQSGPPHEPKFVYQAKVGGRWFPAVCAHSKKQGKQEAADAALRVLIGENEKAERMGFTEVTPVTGASLRRTMLLLSRSPEAQPKTLPLTGSTFHDQIAMLSHRCFNTLTNSFQPSLLGRKILAAIIMKKDSEDMGVVVSLGTGNRCVKGDSLSLKGETVNDCHAEIISRRGFIRFLYSELMKYNSQTAKDSIFEPAKGGEKLQIKKTVSFHLYISTAPCGDGALFDKSCSDRAMESTESRHYPVFENPKQGKLRTKVENGEGTIPVESSDIVPTWDGIRLGERLRTMSCSDKILRWNVLGLQGALLTHFLQPIYLKSVTLGYLFSQGHLTRAICCRVTRDGSAFEDGLRHPFIVNHPKVGRVSIYDSKRQSGKTKETSVNWCLADGYDLEILDGTRGTVDGPRNELSRVSKKNIFLLFKKLCSFRYRRDLLRLSYGEAKKAARDYETAKNYFKKGLKDMGYGNWISKPQEEKNFYLCPV
As to B1, the binding entry is given as “binds”.
